Taken from: PubChem BioAssay AID1159578 (Peter MacCallum Cancer Centre, 2015)
Shown is one part, drawn at random, of about 18,000 reagents. Over the whole deposit, about 1,030 (5.7%) got an active call. 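Inactive calls also include pools with fewer than 3300 nuclei, whose migration was not assessed.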 The raw values are shown without normalisation.

- Aim: 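Genome-wide hunt for genes controlling movement of lymphatic endothelial cells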 (primary screen)
- Cells: human lymphatic endothelial cells
- Reagent: siRNA pool against human genes, 40 nM
- Time to read-out: 48 h after transfection
- Detection: 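High-content imaging of dye-stained cells in a scratch assay measures filled wound area and nuclei per well; duplicate means given as ratio to mock and robust z-score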
- Scale: migration robust z-score: higher = faster migration into the scratch; migration relative to mock: higher = more scratch area covered than mock; nuclei per well: higher = more cells in the well
- Rule for the call: 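Pools averaging fewer than 3300 nuclei are never called; remaining pools count as changed when migration robust z lies outside -2 to 2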
- Calls: active = migration changed; inactive = no migration change, or too few cells

Target gene,migration robust z-score,migration class with cell-count check,migration relative to mock,"nuclei per well, duplicate mean",outcome
LMO3 (LIM domain only 3),1.3,migration z between -2 and 2; enough cells,1.22,5854,inactive
SHMT1 (serine hydroxymethyltransferase 1),-0.08,migration z between -2 and 2; enough cells,0.79,5891,inactive
BIN2 (bridging integrator 2),0.94,migration z between -2 and 2; enough cells,1.12,3709,inactive
COL9A1 (collagen type IX alpha 1 chain),-0.34,migration z between -2 and 2; enough cells,0.8,3904,inactive
MEMO1 (mediator of cell motility 1),-0.2,migration z between -2 and 2; enough cells,0.84,6106,inactive
RC3H1 (ring finger and CCCH-type domains 1),-1.22,migration z between -2 and 2; enough cells,0.57,4938,inactive
ANGPTL8 (angiopoietin like 8),-1.14,migration z between -2 and 2; enough cells,0.59,5137,inactive
ZNF580 (zinc finger protein 580),-1.17,migration z between -2 and 2; enough cells,0.58,4526,inactive
BCAT1 (branched chain amino acid transaminase 1),-0.8,migration z between -2 and 2; enough cells,0.65,5494,inactive
TMEM244 (transmembrane protein 244),-0.62,migration z between -2 and 2; enough cells,0.72,7251,inactive
SELENBP1 (selenium binding protein 1),0.68,migration z between -2 and 2; enough cells,1.05,5663,inactive
SEC11B,-1.87,migration z between -2 and 2; enough cells,0.44,4179,inactive
BTLA (B and T lymphocyte associated),-0.42,migration z between -2 and 2; enough cells,0.77,5492,inactive
KCNK18 (potassium two pore domain channel subfamily K member 18),0.24,migration z between -2 and 2; enough cells,0.85,6150,inactive
RALGDS (ral guanine nucleotide dissociation stimulator),1.34,migration z between -2 and 2; enough cells,1.23,5434,inactive
FOXN3 (forkhead box N3),0.6,migration z between -2 and 2; enough cells,0.92,6224,inactive
THEMIS (thymocyte selection associated),0.33,migration z between -2 and 2; enough cells,0.97,4578,inactive
NRN1 (neuritin 1),1.26,migration z between -2 and 2; enough cells,1.22,5933,inactive
IL33R (interleukin 33 receptor),1.12,migration z between -2 and 2; enough cells,1.02,6364,inactive
ZFAND6 (zinc finger AN1-type containing 6),0.08,migration z between -2 and 2; enough cells,0.82,5354,inactive
TRIP11 (thyroid hormone receptor interactor 11),-0.05,migration z between -2 and 2; enough cells,0.8,6824,inactive
TMPRSS3 (transmembrane serine protease 3),-0.68,migration z between -2 and 2; enough cells,0.68,5654,inactive
CHMP4A (charged multivesicular body protein 4A),-1.49,migration z between -2 and 2; enough cells,0.5,7193,inactive
C3orf70 (chromosome 3 open reading frame 70),0.3,migration z between -2 and 2; enough cells,0.96,7310,inactive
YBX2 (Y-box binding protein 2),-0.36,migration z between -2 and 2; enough cells,0.74,5992,inactive
TCF15 (transcription factor 15),-0.44,migration z between -2 and 2; enough cells,0.72,7090,inactive
MRPL3 (mitochondrial ribosomal protein L3),1.68,migration z between -2 and 2; enough cells,1.32,5832,inactive
SLC45A4,0.57,migration z between -2 and 2; enough cells,1.03,6071,inactive
CWC27 (CWC27 spliceosome associated cyclophilin),0.26,migration z between -2 and 2; enough cells,0.86,5382,inactive
SLC39A8,0.75,migration z between -2 and 2; enough cells,1.08,6028,inactive
APOC1 (apolipoprotein C1),1.04,migration z between -2 and 2; enough cells,1,5420,inactive
LRBA (LPS responsive beige-like anchor protein),0.74,migration z between -2 and 2; enough cells,1.07,5672,inactive
DEFB107B (defensin beta 107B),0.3,migration z between -2 and 2; enough cells,0.97,5634,inactive
DNMT3B (DNA methyltransferase 3 beta),-1.84,migration z between -2 and 2; enough cells,0.45,5634,inactive
"ARAP2 (ArfGAP with RhoGAP domain, ankyrin repeat and PH domain 2)",-0.68,migration z between -2 and 2; enough cells,0.7,6037,inactive
IMPA2 (inositol monophosphatase 2),1.33,migration z between -2 and 2; enough cells,1.06,3972,inactive
SMARCC1 (SWI/SNF related BAF chromatin remodeling complex subunit C1),0.52,migration z between -2 and 2; enough cells,0.9,6482,inactive
TJAP1 (tight junction associated protein 1),-2.08,migration z below -2; enough cells,0.35,5468,active
EPB41L5 (erythrocyte membrane protein band 4.1 like 5),0.26,migration z between -2 and 2; enough cells,0.96,5235,inactive

An excerpt from above, limited to “migration relative to mock”:
MRPL3 (mitochondrial ribosomal protein L3)	1.32
SLC45A4	1.03
CWC27 (CWC27 spliceosome associated cyclophilin)	0.86
